Several values for one entry are separate records, joined by “and”; a condition that tells them apart may be missing. Equal values may be shown once. The list shows a part of the results. Shown are side measurements of this screen, not its main read-out; they come without a call. The list favours compounds with an active or inconclusive main result. Potencies come from curve fits of mixed quality, noted in brackets.
Assay: IkB Signaling
Settings: ABC-DLBCL IkBa-CBG/CBR dual luciferase ratio (green luciferase fused to IkBa over red control in OCI-Ly3 lymphoma cells), 4 h
Method in brief: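 Curves were fitted separately to fusion (green), unfused (red) and ratio luminescence, then classed by r2, magnitude and activity. Cells: OCI-Ly3, 4 h compound plus doxycycline at 37C; 10 uM MG-132 defined full response.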

[1] = measured here: control luc red channel unless noted

Cc1cccn2c(=O)c(C=Nc3ccc(Cl)cc3)c(NCCO)nc12
AC50 [1]: 5.01 µM [falling, full curve]

O=C(CSc1nc2ccccc2nc1Cc1ccccc1)N1CCN(c2ccccc2)CC1
AC50 [1]: 39.8 µM [falling, single point]

CC(=O)Nc1cc(-c2ccccc2)nn1Cc1cccc(Cl)c1
AC50 [1]: 15.8 µM [falling, partial curve]

CC12CCC(c3c(C(=O)Nc4nccs4)nn(-c4ccccc4)c31)C2(C)C (stereo not given)
AC50 [1]: 15.8 µM [falling, partial curve]

Cc1noc(NS(=O)(=O)c2ccc(NC(=O)c3ccc(Br)cc3)cc2)c1C
AC50 [1]: 31.6 µM [falling, single point]

Cc1ccc(OCc2nnc(SCC(=O)CC(=O)Nc3ccccc3)o2)cc1
AC50 [1]: 39.8 µM [falling, single point]

Cc1c(Cl)cccc1NC(=O)c1ccc2nc(C(C)C)oc2c1
AC50 [1]: 3.98 µM [falling, partial curve]

CC(C)(C)c1ccc(-c2nnc3sc(-c4ccccn4)nn23)cc1
AC50 [1]: 10 µM [falling, partial curve]

CCC(=O)Nc1ccccc1-c1nc2ccccc2n(C(C)C(=O)Nc2ccc(OC)cc2)c1=O (stereo not given)
AC50 [1]: 12.6 µM [falling, partial curve]

O=C(O)c1ccc(N2C(=O)c3[nH]nc(-c4ccccc4)c3C2c2cccc(F)c2)cc1 (stereo not given)
AC50 [1]: 15.8 µM [falling, partial curve]

COc1cccc(C2C(=O)N(C3CCCCC3)CC(=O)N2Cc2ccc(Cl)cc2)c1 (stereo not given)
AC50 [1]: 15.8 µM [falling, partial curve]

Cc1ccc2c(c1)C(=O)OC(C(=O)Nc1ncc(Cc3ccccc3)s1)C2 (stereo not given)
AC50 [1]: 39.8 µM [falling, single point]

CC1Cc2cc(S(=O)(=O)CCC(=O)Nc3ccc(Cl)cc3F)ccc2N1C(=O)C1CC1 (stereo not given)
AC50 [1]: 15.8 µM [falling, single point]

CC(C)Oc1ccc(C(=O)Nc2ccc(-c3nc4ccccc4s3)cc2)cc1
AC50 [1]: 0.1 µM [falling, full curve, poor fit]

CC(C)N(Cc1nc(-c2ccccc2)no1)C(=O)c1ccc(Br)o1
AC50 [1]: 25.1 µM [falling, partial curve]

COc1ccccc1C(=O)Nc1cc(-c2ccc(C)cc2)no1
AC50 [1]: 39.8 µM [falling, single point]

Cc1ccccc1Cn1c(CN2CCN(c3cc(Cl)ccc3C)CC2)nc2c1c(=O)[nH]c(=O)n2C
AC50 [1]: 3.16 µM [falling, full curve]

O=C(CC(=O)c1ccccc1)Nc1ccc2c(c1)OCCO2
AC50 [1]: 10 µM [falling, partial curve]

COc1ccc(CCNC(=O)CCc2c(C)c3cc4c(C)coc4cc3oc2=O)cc1
AC50 [1]: 39.8 µM [falling, partial curve]

Cc1ccc(C)c(N2CCN(C(=O)c3cc4sccc4n3C)CC2)c1
AC50 [1]: 15.8 µM [falling, partial curve]

CCN(CC)S(=O)(=O)c1ccc2c(c1)N(CC(=O)NCc1ccc(F)cc1)C(=O)CO2
AC50 [1]: 25.1 µM [falling, partial curve, poor fit]

Cc1cc(N2CCN(c3cccc(C(F)(F)F)c3)CC2)n2nc(-c3ccccc3C)nc2n1
AC50 [1]: 20 µM [falling, single point]

Cc1ccc2oc(=O)c3cnn(CC(=O)N4CCN(c5cccc(C(F)(F)F)c5)CC4)c3c2c1
AC50 [1]: 0.126 µM [falling, full curve, poor fit]

O=S(=O)(c1cccc(C(F)(F)F)c1)N1CCC(Oc2ccc(-n3cnnn3)cc2)CC1
AC50 [1]: 1.26 µM [falling, full curve]

COc1ccc(NC(=O)C2=C(C)Nc3c(C(=O)Nc4ccc(C)cc4)cnn3C2c2cc(OC)ccc2OC)cc1 (stereo not given)
AC50 [1]: 25.1 µM [falling, single point]

Cc1cc(C)c2oc(-c3cc(NC(=O)Cc4ccccc4)ccc3Cl)nc2c1
AC50 [1]: 2.51 µM [falling, partial curve]

COc1cccc(NC(=O)Cn2c(=O)n(Cc3ccccc3)c(=O)c3c2c2cc(C)ccc2n3C)c1
AC50 [1]: 1.58 µM [falling, single point]

O=C(Nc1ccc([N+](=O)[O-])cc1Cl)c1cc(Cl)ccc1O
AC50 (measured here: IkB-luc green channel): 2.51 µM [falling, full curve] | AC50 (measured here: control luc red channel): 3.16 nM [falling, full curve] and 0.251 nM [falling, full curve]

N#Cc1c(N)n[nH]c1-c1cc2c([nH]1)CCCC2
AC50 [1]: 39.8 µM [falling, single point]

COc1cc(OC)c(OC)cc1CN1CCc2nc(N3CCN(c4ccccc4F)CC3)ncc2C1
AC50 [1]: 25.1 µM [falling, partial curve]

Cc1ccc2c(C)c(C(=O)N3CCC(c4nc5ccccc5s4)CC3)oc2c1C
AC50 [1]: 39.8 µM [falling, single point]

COc1ccc(C2C=C(c3ccccc3)Nc3nc(NS(=O)(=O)c4ccc(C)cc4)nn32)cc1 (stereo not given)
AC50 [1]: 0.631 µM [rising, full curve, poor fit]

Cc1nc(N2CCN(C(=O)c3ccco3)CC2)c2oc3ccccc3c2n1
AC50 [1]: 12.6 µM [falling, partial curve]

Cc1c(C(=O)OC2CCCCC2)[nH]c2c1C(=O)CC(c1ccccc1)C2 (stereo not given)
AC50 [1]: 31.6 µM [falling, partial curve, poor fit]

Cc1ccc(OCC(=O)N(Cc2ccc(Cl)cc2)CC2CCCO2)cc1C (stereo not given)
AC50 [1]: 39.8 µM [falling, single point]

COc1ccc(C(=O)N2CC(=O)Nc3ccc(C)cc3C2c2ccc(F)cc2)c(OC)c1 (stereo not given)
AC50 [1]: 31.6 µM [falling, single point]

COc1cccc(C(=O)Cn2c(=N)n(C)c3ccccc32)c1
AC50 [1]: 12.6 µM [falling, partial curve]

CCC(=O)N1CCc2cc(Br)cc(S(=O)(=O)CCC(=O)NCCc3ccc(C)cc3)c21
AC50 [1]: 3.16 µM [rising, single point]

COc1ccc(N(CC(=O)Nc2ccc(F)c(Cl)c2)S(=O)(=O)c2c(C)noc2C)cc1
AC50 [1]: 12.6 µM [falling, partial curve]

Source: PubChem BioAssay AID445 (National Center for Advancing Translational Sciences (NCATS), 2006)
